The results in this text go back to PubChem BioAssay (EPA / NIEHS).

By UniProt entry, the sequences of proteins in these tests, tags left out. Where a name states a change or a piece, a line headed by the entry shows the natural chain unless it says otherwise.
UniProt P37238, whole entry, looked up: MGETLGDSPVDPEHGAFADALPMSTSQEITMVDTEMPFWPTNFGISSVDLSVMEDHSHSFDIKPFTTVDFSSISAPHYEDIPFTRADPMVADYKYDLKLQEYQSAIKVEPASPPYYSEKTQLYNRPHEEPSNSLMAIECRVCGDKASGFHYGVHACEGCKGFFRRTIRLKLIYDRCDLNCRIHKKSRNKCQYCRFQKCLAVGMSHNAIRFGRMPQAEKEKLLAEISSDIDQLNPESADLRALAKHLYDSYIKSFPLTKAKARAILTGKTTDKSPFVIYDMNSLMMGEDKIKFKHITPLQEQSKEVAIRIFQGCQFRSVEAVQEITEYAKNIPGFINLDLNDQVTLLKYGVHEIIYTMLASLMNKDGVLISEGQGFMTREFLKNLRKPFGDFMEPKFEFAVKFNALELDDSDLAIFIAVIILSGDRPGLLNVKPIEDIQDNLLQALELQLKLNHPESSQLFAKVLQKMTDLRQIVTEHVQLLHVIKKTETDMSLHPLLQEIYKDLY
UniProt P10275: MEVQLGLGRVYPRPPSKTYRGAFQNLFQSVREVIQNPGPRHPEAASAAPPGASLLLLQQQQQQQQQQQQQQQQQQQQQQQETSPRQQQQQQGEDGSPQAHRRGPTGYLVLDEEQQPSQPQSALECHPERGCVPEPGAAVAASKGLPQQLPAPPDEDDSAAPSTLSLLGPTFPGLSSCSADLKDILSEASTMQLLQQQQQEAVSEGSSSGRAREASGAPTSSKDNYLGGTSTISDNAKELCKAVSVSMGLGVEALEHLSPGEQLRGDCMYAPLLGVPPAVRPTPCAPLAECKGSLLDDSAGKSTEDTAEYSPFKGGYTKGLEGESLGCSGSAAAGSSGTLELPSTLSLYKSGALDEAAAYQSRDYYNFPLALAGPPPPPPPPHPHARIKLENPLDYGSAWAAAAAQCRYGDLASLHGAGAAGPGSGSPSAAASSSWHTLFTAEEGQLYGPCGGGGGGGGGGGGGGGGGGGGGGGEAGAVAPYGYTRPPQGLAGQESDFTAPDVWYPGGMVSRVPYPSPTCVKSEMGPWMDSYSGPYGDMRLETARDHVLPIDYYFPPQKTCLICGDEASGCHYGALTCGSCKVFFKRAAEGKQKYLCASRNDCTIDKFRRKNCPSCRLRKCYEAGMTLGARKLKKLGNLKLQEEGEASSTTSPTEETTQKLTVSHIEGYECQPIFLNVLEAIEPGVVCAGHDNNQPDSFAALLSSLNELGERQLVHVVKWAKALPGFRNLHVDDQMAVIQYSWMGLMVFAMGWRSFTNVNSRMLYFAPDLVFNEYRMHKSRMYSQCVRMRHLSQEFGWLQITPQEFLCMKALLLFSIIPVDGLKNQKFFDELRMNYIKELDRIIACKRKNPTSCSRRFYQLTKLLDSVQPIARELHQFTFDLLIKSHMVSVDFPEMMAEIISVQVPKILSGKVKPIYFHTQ
UniProt P19838: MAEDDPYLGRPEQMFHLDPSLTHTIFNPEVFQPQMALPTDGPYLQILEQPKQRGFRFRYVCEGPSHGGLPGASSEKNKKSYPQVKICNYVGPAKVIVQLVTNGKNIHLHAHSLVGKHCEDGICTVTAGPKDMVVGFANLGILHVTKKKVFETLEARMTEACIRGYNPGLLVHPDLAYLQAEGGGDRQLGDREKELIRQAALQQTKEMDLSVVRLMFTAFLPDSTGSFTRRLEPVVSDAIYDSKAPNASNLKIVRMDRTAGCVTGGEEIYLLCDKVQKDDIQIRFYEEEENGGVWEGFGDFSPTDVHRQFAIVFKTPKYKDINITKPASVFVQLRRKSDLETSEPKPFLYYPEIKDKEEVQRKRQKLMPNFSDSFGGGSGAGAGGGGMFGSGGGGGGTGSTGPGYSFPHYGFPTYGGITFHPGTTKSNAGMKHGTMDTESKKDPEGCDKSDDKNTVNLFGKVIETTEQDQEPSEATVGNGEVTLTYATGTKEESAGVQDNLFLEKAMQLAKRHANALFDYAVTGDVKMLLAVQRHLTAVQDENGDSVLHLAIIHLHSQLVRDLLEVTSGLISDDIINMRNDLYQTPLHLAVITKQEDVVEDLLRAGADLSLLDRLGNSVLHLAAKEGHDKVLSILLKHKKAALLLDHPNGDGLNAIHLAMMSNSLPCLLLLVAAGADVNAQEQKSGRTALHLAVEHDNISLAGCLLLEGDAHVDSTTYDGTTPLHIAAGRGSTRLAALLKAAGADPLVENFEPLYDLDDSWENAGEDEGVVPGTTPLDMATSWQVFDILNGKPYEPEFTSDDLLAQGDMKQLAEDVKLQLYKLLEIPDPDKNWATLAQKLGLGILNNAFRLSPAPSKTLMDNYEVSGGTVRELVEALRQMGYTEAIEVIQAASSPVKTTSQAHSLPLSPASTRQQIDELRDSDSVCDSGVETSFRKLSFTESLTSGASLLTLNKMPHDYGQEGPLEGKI
UniProt P49327, whole entry, looked up: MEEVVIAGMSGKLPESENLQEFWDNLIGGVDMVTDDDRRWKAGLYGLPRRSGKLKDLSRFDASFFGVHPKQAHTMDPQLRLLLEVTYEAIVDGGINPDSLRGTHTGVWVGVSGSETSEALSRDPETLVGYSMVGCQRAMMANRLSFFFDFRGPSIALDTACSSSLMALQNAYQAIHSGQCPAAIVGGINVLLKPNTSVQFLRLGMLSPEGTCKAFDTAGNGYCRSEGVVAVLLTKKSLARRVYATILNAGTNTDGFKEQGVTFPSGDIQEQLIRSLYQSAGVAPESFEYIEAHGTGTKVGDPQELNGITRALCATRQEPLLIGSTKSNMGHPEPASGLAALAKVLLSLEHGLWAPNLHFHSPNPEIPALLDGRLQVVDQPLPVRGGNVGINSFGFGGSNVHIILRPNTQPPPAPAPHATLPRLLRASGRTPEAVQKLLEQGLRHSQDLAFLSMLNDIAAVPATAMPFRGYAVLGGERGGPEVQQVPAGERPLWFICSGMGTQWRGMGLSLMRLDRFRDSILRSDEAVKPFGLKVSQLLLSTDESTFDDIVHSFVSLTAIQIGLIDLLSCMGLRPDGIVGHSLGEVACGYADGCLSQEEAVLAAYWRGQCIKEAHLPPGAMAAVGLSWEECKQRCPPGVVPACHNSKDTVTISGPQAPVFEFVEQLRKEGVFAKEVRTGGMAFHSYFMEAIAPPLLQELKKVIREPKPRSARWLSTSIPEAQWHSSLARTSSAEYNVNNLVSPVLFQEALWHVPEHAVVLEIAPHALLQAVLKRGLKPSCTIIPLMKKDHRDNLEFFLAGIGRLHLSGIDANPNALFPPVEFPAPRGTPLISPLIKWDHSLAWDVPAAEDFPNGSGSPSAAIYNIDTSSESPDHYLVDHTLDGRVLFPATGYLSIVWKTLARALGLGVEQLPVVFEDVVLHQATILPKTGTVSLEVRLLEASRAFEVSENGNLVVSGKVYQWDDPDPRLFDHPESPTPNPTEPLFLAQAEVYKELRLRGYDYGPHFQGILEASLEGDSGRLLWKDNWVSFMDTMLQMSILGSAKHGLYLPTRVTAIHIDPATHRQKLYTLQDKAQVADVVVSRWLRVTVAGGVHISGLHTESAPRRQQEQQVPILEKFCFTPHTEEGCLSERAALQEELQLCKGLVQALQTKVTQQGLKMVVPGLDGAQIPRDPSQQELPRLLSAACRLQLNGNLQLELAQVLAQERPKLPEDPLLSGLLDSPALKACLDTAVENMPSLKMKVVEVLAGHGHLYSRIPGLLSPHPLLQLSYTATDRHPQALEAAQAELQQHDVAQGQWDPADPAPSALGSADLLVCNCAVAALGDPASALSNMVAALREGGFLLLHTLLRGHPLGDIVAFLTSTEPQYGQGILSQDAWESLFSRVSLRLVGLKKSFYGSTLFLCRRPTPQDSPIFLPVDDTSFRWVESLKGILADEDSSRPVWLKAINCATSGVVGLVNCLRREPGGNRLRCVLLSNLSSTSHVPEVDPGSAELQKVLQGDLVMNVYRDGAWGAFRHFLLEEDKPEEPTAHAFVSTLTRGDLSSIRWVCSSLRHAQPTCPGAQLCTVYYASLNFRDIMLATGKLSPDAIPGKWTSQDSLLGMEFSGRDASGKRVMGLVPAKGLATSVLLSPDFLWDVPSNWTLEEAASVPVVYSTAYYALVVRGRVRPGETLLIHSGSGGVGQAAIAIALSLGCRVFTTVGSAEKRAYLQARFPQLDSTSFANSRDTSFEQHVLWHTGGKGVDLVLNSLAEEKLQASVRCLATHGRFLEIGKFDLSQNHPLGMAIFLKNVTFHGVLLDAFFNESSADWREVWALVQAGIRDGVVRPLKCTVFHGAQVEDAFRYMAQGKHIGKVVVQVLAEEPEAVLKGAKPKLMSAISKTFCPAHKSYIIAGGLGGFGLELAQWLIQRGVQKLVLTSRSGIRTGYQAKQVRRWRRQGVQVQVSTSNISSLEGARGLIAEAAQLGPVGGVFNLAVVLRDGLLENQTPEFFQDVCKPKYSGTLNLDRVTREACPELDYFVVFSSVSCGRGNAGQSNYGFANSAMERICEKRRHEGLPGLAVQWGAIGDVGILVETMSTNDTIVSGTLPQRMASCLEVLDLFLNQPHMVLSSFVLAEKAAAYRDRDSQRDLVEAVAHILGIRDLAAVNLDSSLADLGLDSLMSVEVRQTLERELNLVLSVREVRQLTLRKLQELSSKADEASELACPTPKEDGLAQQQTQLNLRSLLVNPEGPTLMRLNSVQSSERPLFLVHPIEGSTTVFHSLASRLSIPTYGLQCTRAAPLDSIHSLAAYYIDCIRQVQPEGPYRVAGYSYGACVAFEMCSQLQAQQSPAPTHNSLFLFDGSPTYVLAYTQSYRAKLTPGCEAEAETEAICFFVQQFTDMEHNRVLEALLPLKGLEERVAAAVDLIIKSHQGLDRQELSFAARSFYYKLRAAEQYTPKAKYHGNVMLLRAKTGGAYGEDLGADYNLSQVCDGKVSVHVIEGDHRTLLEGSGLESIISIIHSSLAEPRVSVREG

Assay [1] can be described thus: ACEA_AR_agonist_AUC_viability: ACEA Biosciences xCELLigence Real-Time Cell Analysis on Androgen Receptor Agonism for Viability (AID 2283775; active = hit-call score of the fitted dose curve at least 0.9, where 1 is the maximum). In short, it runs like this:
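22Rv1 cells; impedance growth kinetics; 8-pt 1:4 dilutions from 100 uM top final, ≤0.5% DMSO; n = 2; 80 h read; AUC viability, loss-of-signal vs DMSO.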

Assay [2] is described as follows: ACEA_AR_antagonist_AUC_viability: ACEA Biosciences xCELLigence Real-Time Cell Analysis on Androgen Receptor Antagonism for Viability (AID 2283776; active = hit-call score of the fitted dose curve at least 0.9, where 1 is the maximum;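 note: 22Rv1 human prostate cancer cells growing on impedance electrode plates; area under impedance growth curve at 80 h after dosing as viability; hits lower the growth signal relative to DMSO meaning cytotoxicity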). In short, it runs like this: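 Viability endpoint from label-free cell-index monitoring: 22Rv1 cultures treated with an eight-point 1:4 dilution series starting at 100 uM final, AUC at 80 h fitted against DMSO.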
Assay [3] has as its target Nuclear receptor subfamily 1 group I member 2 (Mus musculus) (UniProt O54915). Put plainly: ATG_mPXR_XSP2: Attagene TRANS-FACTORIAL Multi-Species (XSP1) HepG2 Assay for mouse Pregnane X Receptor (PXR) (AID 2283831; active = hit-call score of the fitted dose curve at least 0.9, where 1 is the maximum). In short, it runs like this:
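Reporter transcripts were quantified by RT-PCR, FAM primer extension, HpaI digestion and capillary electrophoresis after 24 h of chemical exposure in transiently transfected HepG2 cells carrying chimeric receptor-GAL4 constructs; DMSO served as baseline.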

The subject of assay [4] is Sodium/Iodide Symporter (NIS), SLC5A5 (gene 6528). Put plainly: CPHEA_Stoker_NIS_Inhibition_RAIU: CPHEA's Radioactive Iodide Uptake (RAIU) Assay for Sodium/Iodide Symporter (NIS) Inhibition, Stoker and Laws Labs (AID 2283841; active = hit-call score of the fitted dose curve at least 0.9, where 1 is the maximum). In short, it runs like this:
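Test chemicals, six concentrations from 0.001 to 100uM in 0.5% DMSO, were co-incubated with carrier-free 125I (final 329pM) on hNIS-HEK293T-EPA monolayers in pH 7.4 HEPES-buffered HBSS. Plates stood 2 hours at room temperature, then were washed cold and counted.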

The target of assay [5] is mouse Peroxisome Proliferator-activated Receptor gamma (PPARg), Pparg (gene 19016) (UniProt P37238). Put plainly: ATG_mPPARg_XSP2: Attagene TRANS-FACTORIAL Multi-Species (XSP2) HepG2 Assay for mouse Peroxisome Proliferator-activated Receptor gamma (PPARg) (AID 2283830; active = hit-call score of the fitted dose curve at least 0.9, where 1 is the maximum;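 note: hits are gains in reporter mRNA above DMSO so AC50 marks activation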). In short, it runs like this:
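Multiplexed TRANS reporter readout: after 24 h chemical exposure of transfected HepG2 cells (with 3 nM 6-alpha-fluorotestosterone, 1.5 nM norgestrel present), RNA reverse-transcribed, amplified, 6-FAM-labelled and resolved by capillary electrophoresis; mouse PPARg-Gal4 induction scored against DMSO.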

Assay [6] is described as follows: CEETOX_H295R_11DCORT: CeeTox H295R High-throughput Steroidogenesis Assay for 11-Deoxycortisol (11DCORT) (AID 2283432). The conditions noted are these: actives raise or lower the signal. In short, it runs like this: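 Steroidogenesis in human H295R cells: 48 h chemical exposure after forskolin priming, 11-deoxycortisol measured by LC-MS/MS.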
A short description of assay [7]: CEETOX_H295R_PROG: CeeTox H295R High-throughput Steroidogenesis Assay for Progesterone (PROG) (AID 2283442).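 For AC50: human H295R adrenal cells primed with 10 µM forskolin before dosing; progesterone secreted into medium by H295R cells measured by HPLC-MS/MS.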 The conditions noted are these: actives raise or lower the signal. In short, it runs like this: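 Steps: seed H295R cells and let them adhere overnight; prime 48 h with 10 uM forskolin; dose with compound in DMSO at 0.1% final for 48 h; extract medium steroids with MTBE; measure progesterone by LC-MS/MS. MTT viability was run in the same wells.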

Read-out in assay [8]: Peroxisomal acyl-coenzyme A oxidase 1 (ACOX1) gene, ACOX1 (gene 51)
Put plainly: LTEA_HepaRG_ACOX1: Life Technologies and Expression Analysis (LTEA) Assay for Peroxisomal acyl-coenzyme A oxidase 1 (ACOX1) gene using HepaRG (AID 2283467). The conditions noted are these: actives raise or lower the signal; mRNA level, 48 h. In short, it runs like this:
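HepaRG, 48 h chemical exposure, 8-pt half-log series from 100 uM top, 0.5% DMSO vehicle, duplicates. Readout: ACOX1 mRNA by Fluidigm qRT-PCR, housekeeping-normalized; bidirectional fit vs DMSO baseline.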

A short description of assay [9]: CEETOX_H295R_OHPROG: CeeTox H295R High-throughput Steroidogenesis Assay for OH-Progesterone (OHPROG) (AID 2283435).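 Note: human adrenal H295R cells primed 48 h with 10 µM forskolin; 17alpha-hydroxyprogesterone secreted into medium measured by HPLC-MS/MS.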 The conditions noted are these: actives raise or lower the signal.
Assay [10] is described as follows: CEETOX_H295R_ANDR: CeeTox H295R High-throughput Steroidogenesis Assay for Androstenedione (ANDR) (AID 2283436).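 Note: human H295R adrenal cells exposed for 48 h with androstenedione measured in medium.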 The conditions noted are these: actives raise or lower the signal. In short, it runs like this:
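48 h chemical exposure, H295R cells, DMEM/F12 + ITS+ and Nu-Serum. Medium androstenedione: MTBE extraction, C18 reverse-phase HPLC, ESI+ MS/MS. Fit bidirectional vs DMSO; MTT viability in same wells.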

The nature of assay [11]: CEETOX_H295R_DOC: CeeTox H295R High-throughput Steroidogenesis Assay for DOC (AID 2283439). As to conditions: actives raise or lower the signal. In short, it runs like this: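 Steps: seed H295R, adhere overnight; 10 uM forskolin 48 h; replace with chemical medium (0.1% DMSO) 48 h; collect medium, MTBE extraction, HPLC-MS/MS for DOC. Viability then checked by MTT; cytotoxic chemicals diluted until viability ≥70%.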

The nature of assay [12]: TOX21_TR_RXR_BLA_Agonist_Followup_viability: Viability Assessment in the Tox21 Thyroid Hormone Receptor beta Retinoid X Receptor alpha (RXRa) Agonism Beta-lactamase (BLA) Follow-Up Assay (AID 2283970; active = hit-call score of the fitted dose curve at least 0.9, where 1 is the maximum).
Assay [13] concerns the target Nucleoli Translocation, AR (gene 367) (UniProt P10275). Put plainly: UPITT_HCI_U2OS_AR_TIF2_Nucleoli_Antagonist: University of Pittsburgh U2OS Androgen Receptor-Transcriptional Intermediary Factor 2 (AR-TIF2) Antagonism High Content Imaging Assay for Nucleoli Translocation (AID 2283997; active = hit-call score of the fitted dose curve at least 0.9, where 1 is the maximum). In short, it runs like this:
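Compounds are added at 20 uM final concentration in 0.2% DMSO to U2OS cells carrying AR-RFP and TIF2-GFP fusions. Nucleolar AR-RFP fluorescence is then quantified by automated imaging. Antagonism is fitted positively against DHT baseline.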

Read-out in assay [14]: cysteine-aspartic acid protease (CASP8), CASP8 (gene 841)
Put plainly: LTEA_HepaRG_CASP8: Life Technologies and Expression Analysis (LTEA) Assay for cysteine-aspartic acid protease (CASP8) using HepaRG (AID 2283480). As to conditions: actives raise or lower the signal; mRNA level, 48 h. In short, it runs like this:
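qRT-PCR readout of CASP8 mRNA, normalized to three housekeeping genes, after 48 h chemical exposure of HepaRG cells; 8-point half-log series, top 100 uM, 0.5% DMSO vehicle. Bidirectional curve fitting against DMSO baseline.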

Read-out in assay [15]: Ezrin (EZR), EZR (gene 7430)
The experiment in a line: LTEA_HepaRG_EZR: Life Technologies and Expression Analysis (LTEA) Assay for Ezrin (EZR) using HepaRG (AID 2283491). The conditions noted are these: actives raise or lower the signal; mRNA level, 48 h.

Read-out in assay [16]: Glutathione S-transferase M3 (GSTM3), GSTM3 (gene 2947)
Put plainly: LTEA_HepaRG_GSTM3: Life Technologies and Expression Analysis (LTEA) Assay for Glutathione S-transferase M3 (GSTM3) using HepaRG (AID 2283501). The conditions noted are these: actives raise or lower the signal; mRNA level, 48 h. In short, it runs like this: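 HepaRG, plated 48 h, then serum-free induction medium; test chemical 48 h, duplicate; 100 uM top, half-log x8, 0.5% DMSO. Read-out: GSTM3 mRNA (TaqMan qRT-PCR, Fluidigm array). Bidirectional fit vs DMSO.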

Read-out in assay [17]: Nuclear factor NF-kappa-B p105 subunit (Homo sapiens) (UniProt P19838)
The experiment in a line: LTEA_HepaRG_NFKB1: Life Technologies and Expression Analysis (LTEA) Assay for Nuclear Factor Kappa B Subunit 1 (NFKB1) using HepaRG (AID 2283521). The conditions noted are these: actives raise or lower the signal; mRNA level, 48 h. In short, it runs like this:
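Human HepaRG cells receive eight half-log concentrations, highest 100 uM, for 48 h. NFKB1 expression is then quantified by qRT-PCR and analysed for up- or down-regulation relative to 0.5% DMSO vehicle.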

Read-out in assay [18]: Fatty acid synthase (Homo sapiens) (UniProt P49327)
The experiment in a line: LTEA_HepaRG_FASN: Life Technologies and Expression Analysis (LTEA) Assay for Fatty Acid Synthase (FASN) using HepaRG (AID 2283448). As to conditions: actives raise or lower the signal; mRNA level, 48 h. In short, it runs like this: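 Cells were plated, cultured 48 h, switched to serum-free induction medium, then dosed in duplicate (max 100 uM, half-log dilutions, 0.5% DMSO) for 48 h. RNA was then isolated and FASN quantified by qRT-PCR.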

Read-out in assay [19]: Cytochrome P450 (CYP1A2), CYP1A2 (gene 1544)
Put plainly: LTEA_HepaRG_CYP1A2: Life Technologies and Expression Analysis (LTEA) Assay for Cytochrome P450 (CYP1A2) using HepaRG (AID 2283479). The conditions noted are these: actives raise or lower the signal; mRNA level, 48 h. In short, it runs like this:
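CYP1A2 transcript induction or loss, quantified by Fluidigm qRT-PCR against three housekeeping genes, was fitted bidirectionally against 0.5% DMSO controls. Human HepaRG cells received eight half-log concentrations from 100 uM over 48 h.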

Read-out in assay [20]: JUN Transcription Factor, JUN (gene 3725)
The experiment in a line: LTEA_HepaRG_JUN: Life Technologies and Expression Analysis (LTEA) Assay for JUN Transcription Factor using HepaRG (AID 2283513). As to conditions: actives raise or lower the signal; mRNA level, 48 h. In short, it runs like this: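 Read-out is JUN transcript level by TaqMan qRT-PCR, normalized to ACTB, GAPDH and POLR2A, after 48 h chemical treatment of HepaRG cells. Concentration-response spanned eight half-log points up to 100 uM in 0.5% DMSO.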

Read-out in assay [21]: Cyclin D2 (CCND2), CCND2 (gene 894)
Put plainly: LTEA_HepaRG_CCND2: Life Technologies and Expression Analysis (LTEA) Assay for Cyclin D2 (CCND2) using HepaRG (AID 2283449).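 Note: CCND2 transcript measured by TaqMan qRT-PCR and normalised to three housekeeping genes.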 As to conditions: actives raise or lower the signal; mRNA level, 48 h. In short, it runs like this:
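HepaRG, 48 h dosing, 8-pt half-log curve from 100 uM, 0.5% DMSO; duplicate wells. Readout: CCND2 transcript by microfluidic qRT-PCR, housekeeping-normalised; bidirectional fit vs DMSO baseline.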

Read-out in the next assay: HGF (gene 3082)
The experiment in a line: LTEA_HepaRG_HGF: Life Technologies and Expression Analysis (LTEA) Assay for Hepatocyte Growth Facto (HGF) using HepaRG (AID 2283505). The conditions noted are these: actives raise or lower the signal; mRNA level, 48 h. In short, it runs like this:
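Read-out is HGF transcript level by qRT-PCR, normalized to three housekeeping genes, fitted bidirectionally against 0.5% DMSO vehicle. Human HepaRG cells received test chemicals for 48 h at up to 100 uM.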

Read-out in assay [22]: Phosphatase and tensin (PTEN), PTEN (gene 5728)
The experiment in a line: LTEA_HepaRG_PTEN: Life Technologies and Expression Analysis (LTEA) Assay for Phosphatase and tensin (PTEN) using HepaRG (AID 2283523). The conditions noted are these: actives raise or lower the signal; mRNA level, 48 h. In short, it runs like this:
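HepaRG, 48 h exposure, 8-pt half-log series from 100 uM top, 0.5% DMSO vehicle, duplicates. Readout: Fluidigm qRT-PCR of PTEN transcript; housekeeping normalization (ACTB, GAPDH, POLR2A). Gain or loss fitted relative to DMSO baseline.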

For some of these results: This list holds what a sample rich in hits left over. Inconclusive results are not listed. Some structures have more than one record in an assay (separate samples or runs), and their calls can disagree. The list shows a part of the results, in another mix than the full data. Activity calls are given as the source filed them. Rule for the calls, unless noted: active = hit-call score of the fitted dose curve at least 0.9, where 1 is the maximum; inactive = score below 0.9.

On to `OCC#CCO`, for which the call in [1] was inactive.

As to `O=C(Oc1ccccc1)c1ccc(O)cc1`, the compound was called inactive in assay [2], in assay [3] and in assay [4].

`O=c1c(O)c(-c2ccc(O)cc2)oc2cc(O)cc(O)c12`: the half-maximal activity concentration (AC50) in assay [5] is active: 11.6 µM.

With `CCCCCCCCCOS(=O)(=O)O`, the outcome in [4] was inactive.

Turning to `CC(COCC(C)OC(=O)c1ccccc1)OC(=O)c1ccccc1` (stereo not drawn), the outcome in [6], in assay [7] and in assay [8] was inactive.

Take `Cc1ncc([C@@H](CCCCCCc2ccc3c(n2)NCCC3)CC(=O)O)cn1`: the AC50 in assay [9] was active: 50 µM.

As for `c1ccc2c(c1)ccc1ccccc12`, the AC50 in [10] was active: 58.6 µM. Besides, in [11], the result was inactive.

Turning to `Cc1cc(NC(=O)C(=O)O)cc(C)c1Oc1ccc(O)c2c1CCC2`, the AC50 in assay [10] is active: 50 µM. For the same compound, the compound was classed as inactive in [12] and in assay [13].

For the compound `CC(C)=CCCC(C)=CC=O`, the result in assay [11] was inactive.

Consider `c1ccc2c(c1)-c1cccc3c1c-2cc1ccccc13`, for which the AC50 in assay [7] is active: 2.37 µM; in assay [14] it was active: 32.9 µM; in [15] it was active: 10.2 µM; in assay [17], active: 8.75 µM. The result in assay [16] was inactive.

As to `CCO[Si](CCCNC(N)=O)(OCC)OCC`, the result in [18] and in assay [19] was inactive.

For the compound `Cc1ccc([N+](=O)[O-])cc1N`, the result in assay [18] and in assay [20] was inactive.

For the compound `CC(N)=O`, the compound was classed as inactive (in assay [21]; with HGF (gene 3082); in assay [22]).
